Data as given in PubChem BioAssay AID540276 (National Center for Advancing Translational Sciences (NCATS), 2011).
The campaign covered roughly 300,000 compounds. About 5,400 (1.8%) were called active. Inconclusive means that the source gave no clear call. Such entries were picked first, then a sample of the others. The call rests on the fitted dose curve; tested in HEK293 cells. Potencies beside an inconclusive call are fits to weak or partial responses and may not hold up.

assay: qHTS for inhibitors of binding or entry into cells for Marburg Virus; conditions: Marburg virus pseudotyped entry inhibition, cell reporter; activity change, negative = inhibition: at 37.8 µM (top of the series) unless noted
On the % scale 0 is the no-effect control and ±100 the full control effect; potency means the concentration at half of the fitted maximal effect.

| SMILES | Potency | activity change, negative = inhibition |
| --- | --- | --- |
| CC/C(C)=N/NC(=O)c1[nH]c2ccc(C)cc2c1-c1ccccc1 | inconclusive: 12.6 µM [inhibitor, partial curve, poor fit] |  |
| CCOC(=O)c1[nH]c2ccccc2c1NC(=O)c1ccc(S(=O)(=O)N(C)C)cc1 |  | inactive: 2.21% |
| CCCCN(CCCC)c1nn[nH]n1 | inconclusive: 5.62 µM [inhibitor, single point] |  |
| COCCN(C(=O)Cc1cccs1)C(C(=O)NCc1ccc(OC)cc1)c1ccc(OC)cc1 (centres undefined) |  | inactive: 0.1% |
| CN(C)S(=O)(=O)c1cccc(NC(=O)c2cccc(S(=O)(=O)N3CCCCCC3)c2)c1 | inconclusive: 35.5 µM [inhibitor, single point] |  |
| O=C1CC(c2ccccc2)Sc2ccccc2N1 (centres undefined) | inconclusive: 20.6 µM [activator, single point] |  |
| COc1ccc(NC(=O)COc2ccccc2C(=O)NCC(c2ccccc2)N(C)C)cc1Cl (centres undefined) | inconclusive: 23.1 µM [inhibitor, single point] |  |
| CC[C@H]1OC(c2ccccc2)[C@H](C)[C@H]2O[C@@H]2[C@@H]1C(=O)OC (some centres undefined) |  | inactive: -5.45% [at 14.2 µM] |
| COc1ccc(NC(=O)CC2C(=O)N(c3ccc(OC)cc3)C(=O)N2Cc2ccc(OC)c(OC)c2)cc1 (centres undefined) | inactive |  |
| CCCN1C(=O)c2ccccc2NC1c1ccc(OC)cc1O (centres undefined) | inconclusive: 2.82 µM [inhibitor, full curve, poor fit] |  |
| Cc1ccc(S(=O)(=O)N2CCN(C(=O)c3ccccc3Cc3ccccc3)CC2)c(C)c1 | inconclusive: 35.5 µM [inhibitor, single point] |  |
| O=S(Cc1ccc(Br)cc1)Cc1nnc(SCc2ccc(Cl)cc2)n1-c1ccccc1 (centres undefined) | inconclusive: 10 µM [inhibitor, partial curve, poor fit] |  |
| CCOc1cc(-c2cc(-c3ccc(C)o3)nc(N)c2C#N)ccc1O | inconclusive: 8.2 µM [inhibitor, partial curve, poor fit] |  |
| Cc1c(Cl)cccc1NC(=S)N(CCCN1CCOCC1)Cc1ccco1 | inconclusive: 5.01 µM [inhibitor, single point] |  |
| O=C(Nc1ccccc1Cl)C1CCCN(c2ncnc3c2nc2n3CCCCC2)C1 (centres undefined) | inconclusive: 12.6 µM [inhibitor, partial curve, poor fit] |  |
| O=C1CC(Nc2ccc(N3CCOCC3)cc2)C(=O)N1c1ccccc1 (centres undefined) |  | inactive: 4.12% |
| CCOC(=O)CSc1nc2ccccc2c(=O)n1CC1CCCO1 (centres undefined) |  | inactive: 5.8% |
| c1ccc(Cn2c(Sc3nnnn3-c3ccccc3)nnc2-c2ccccc2)cc1 | inconclusive: 20.6 µM [inhibitor, single point] |  |
| O=[N+]([O-])c1ccc(CSc2nc3ccccc3[nH]2)cc1 | inconclusive: 0.891 µM [activator, full curve, poor fit] |  |
| COc1ccc(CCNC(=O)c2ccc(SC)cc2OC)cc1 |  | inconclusive: 0.261% [activator] [at 46.1 µM] |
| CCc1cc(=O)oc2c(C)c(O)c(CN3CCCCC3)cc12 |  | inactive: -1.33% |
| CNC(=O)COC(=O)c1cc(-c2ccc(OC)cc2)nc2ccccc12 | inconclusive: 6.31 µM [inhibitor, full curve, poor fit] |  |

Copied from above (5 entries):

| SMILES | Potency | activity change, negative = inhibition |
| --- | --- | --- |
| COc1ccc(NC(=O)CC2C(=O)N(c3ccc(OC)cc3)C(=O)N2Cc2ccc(OC)c(OC)c2)cc1 (centres undefined) | inactive |  |
| CCCN1C(=O)c2ccccc2NC1c1ccc(OC)cc1O (centres undefined) | inconclusive: 2.82 µM [inhibitor, full curve, poor fit] |  |
| Cc1ccc(S(=O)(=O)N2CCN(C(=O)c3ccccc3Cc3ccccc3)CC2)c(C)c1 | inconclusive: 35.5 µM [inhibitor, single point] |  |
| O=S(Cc1ccc(Br)cc1)Cc1nnc(SCc2ccc(Cl)cc2)n1-c1ccccc1 (centres undefined) | inconclusive: 10 µM [inhibitor, partial curve, poor fit] |  |
| CCOc1cc(-c2cc(-c3ccc(C)o3)nc(N)c2C#N)ccc1O | inconclusive: 8.2 µM [inhibitor, partial curve, poor fit] |  |

(listing goes on)

| SMILES | Potency | activity change, negative = inhibition |
| --- | --- | --- |
| Cc1ccc(S(=O)(=O)N2CCCCC2)cc1NC(=O)CSc1ncnc2ccccc12 | inconclusive: 17.8 µM [inhibitor, partial curve, poor fit] |  |
| Cc1ccc(NC(=O)c2ccc3c(c2)OCCO3)nc1 | inconclusive: 4.47 µM [inhibitor, full curve, poor fit] |  |
| CCN(CC)C(=O)Cn1c(=O)n(-c2ccc(Cl)cc2)c(=O)c2c3c(sc21)CCCCC3 | inconclusive: 15.8 µM [activator, single point] |  |
| O=C(/C=C/c1cccs1)Nc1nc(-c2ccccc2)cs1 | inconclusive: 18.3 µM [inhibitor, single point] |  |
| Cc1cc(C(=O)Nc2cccc3ccccc23)co1 |  | inactive: -2.07% [at 46.1 µM] |
| CC(C)CO/N=C1/C[C@@H](O)[C@@H](O)[C@@H]2[C@@H]3C(=O)N(Cc4ccc5c(c4)OCO5)C(=O)[C@H]3CC[C@H]12 |  | inactive: -29.9% [at 14.2 µM] |
| CCC(=O)Nc1cc(OC)c(NC(=O)c2ccccc2)cc1OC |  | inactive: 15.5% |
| O=[N+]([O-])c1ccc(Sc2cccc[n+]2[O-])c2nonc12 | inconclusive: 5.01 µM [inhibitor, full curve, poor fit] |  |
| COc1ccc(-c2nnc(CSc3nc4ccccc4c(=O)n3C)o2)cc1OC | inconclusive: 18.3 µM [inhibitor, single point] |  |
| N/C(=N\OC(=O)c1ccccc1Cl)c1ccncc1 | inconclusive: 6.31 µM [activator, single point] |  |
| C=CCSc1nc2ccccc2n1S(=O)(=O)c1ccc(Cl)cc1 | inconclusive: 35.5 µM [activator, single point] |  |
| NC(=S)N/N=C\c1ccc(-c2cccc(Cl)c2Cl)o1 | inconclusive: 14.1 µM [inhibitor, single point] |  |
| N#Cc1ccccc1S(=O)(=O)N1CCN(C(=O)C2COc3ccccc3O2)CC1 (centres undefined) | inconclusive: 0.447 µM [activator, partial curve, poor fit] |  |
| Cc1ccc2c(c1)N(CC(=O)N1CCCCCC1)C(=O)C(C)O2 (centres undefined) | inconclusive: 6.31 µM [inhibitor, partial curve, poor fit] |  |
| O=C(c1cccc(S(=O)(=O)NCc2ccccc2)c1)N1CCN(c2ccc(F)cc2)CC1 | inconclusive: 12.6 µM [inhibitor, partial curve, poor fit] |  |
| O=C(CNC(=O)c1ccc2c(=O)n3c(nc2c1)CCC3)Nc1ccc(F)c(F)c1 | inconclusive: 5.62 µM [inhibitor, single point] |  |
| S=C(NC1CCCCC1)N1CCN(Cc2ccccc2)CC1 | inconclusive: 6.31 µM [activator, single point] |  |
| O=[N+]([O-])c1nn(-c2ccc3c(c2)OCCO3)n(O)c1=NCc1ccc(F)cc1Cl |  | inactive: 24.3% [at 46.1 µM] |
| Cc1ccc(/C=C(/C#N)C(=O)NC(=O)Oc2ccccc2)cc1 | inconclusive: 14.6 µM [activator, partial curve, poor fit] |  |
| O=c1c2c(nc3cc(-c4ccc(F)cc4)[nH]n13)CCCC2 | inconclusive: 7.94 µM [inhibitor, partial curve, poor fit] |  |
| O=C(CSc1ccccn1)N/N=C/c1ccccc1[N+](=O)[O-] | inconclusive: 35.5 µM [activator, single point] |  |
| O=S(=O)(c1ccc(Oc2ccc(F)c(Cl)c2)nc1)N1CCOCC1 | inconclusive: 35.5 µM [activator, single point] |  |

| SMILES | Potency | activity change, negative = inhibition |
| --- | --- | --- |
| CC(=O)c1cccc(NC(=O)c2ccc(N(Cc3ccc(C)cc3)S(C)(=O)=O)cc2)c1 | inconclusive: 20.6 µM [inhibitor, single point] |  |
| Cc1ccccc1C(O)(Cc1ccccc1)C1CN2CCC1CC2 (centres undefined) | inconclusive: 35.5 µM [inhibitor, single point] |  |
| COc1ccccc1/C=N/NC(=O)c1cccc2ccccc12 |  | inactive: -6.37% |
| COc1ccc(N(C)S(=O)(=O)c2cccc(C(=O)OCC(=O)NCc3ccccc3OC)c2)cc1 |  | inactive: -13.6% [at 46.1 µM] |
| COc1ccc(NS(=O)(=O)c2ccc(NC(=O)c3ccc(N(C)S(C)(=O)=O)cc3)cc2)c(OC)c1 | inconclusive: 2.51 µM [inhibitor, partial curve, poor fit] |  |
| O=C(CCCN1C(=O)/C(=C\c2ccccc2)SC1=S)Nc1ccccc1O | inconclusive: 12.6 µM [inhibitor, partial curve, poor fit] |  |
| CCOC(=O)c1ccc2nc(Nc3nc4ccc(F)cc4s3)sc2c1 | inconclusive: 3.26 µM [inhibitor, full curve, poor fit] |  |
| CCCc1cc(=O)[nH]c(SCc2csc(-c3ccccc3)n2)n1 | inconclusive: 10.3 µM [activator, partial curve, poor fit] |  |
| Cc1noc(C)c1COc1ccccc1C(=O)N1CCN(S(=O)(=O)c2cccc([N+](=O)[O-])c2)CC1 |  | inactive: 3.55% |
| CCNC(=O)CN(C1CCCCC1)S(C)(=O)=O | inconclusive: 0.112 µM [activator, full curve, poor fit] |  |
| CSc1nn(CC(=O)Nc2ccc(C)cc2C)c(N)c1S(=O)(=O)c1ccc(Cl)cc1 | inconclusive: 15.8 µM [inhibitor, single point] |  |
| CCn1cc(C(=O)N(C)c2cc(C)ccc2C)c2cc(OC)c(OC)cc2c1=O | inconclusive: 17.8 µM [inhibitor, single point] |  |
| C/C(=N\Nc1ccc2nncn2n1)c1ccco1 | inconclusive: 1.26 µM [inhibitor, single point] |  |
| Clc1ccc(/C=N/Nc2nc(Cl)nc3ccccc23)cc1 | inconclusive: 3.66 µM [activator, partial curve, poor fit] |  |
| O=C(Nc1cnn(Cc2ccccc2)c1)c1nc2ncccn2n1 |  | inactive: 1.28% |
| Cc1ccccc1C(=O)NNC(=O)c1cc(N)cc([N+](=O)[O-])c1 | inconclusive: 0.1 µM [activator, full curve, poor fit] |  |
| O=C(O)c1cc2cc(Cc3cccnc3)ccc2o1 | inconclusive: 4.47 µM [inhibitor, full curve] |  |
| Cc1ccc(NS(=O)(=O)c2ccc3nc(-c4ccccc4)[nH]c3c2)cc1Cl |  | inactive: 15.7% [at 46.1 µM] |
| CN(C)N=Nc1nc2c(c(=O)n(C)c(=O)n2C)n1C | inconclusive: 0.0891 µM [inhibitor, full curve, poor fit] |  |
| Cc1nc(N2CCN(c3ccccc3O)CC2)c2c(-c3ccccc3)csc2n1 | inconclusive: 10 µM [inhibitor, partial curve, poor fit] |  |
